Measurements from the supplement of paper PMC12823440, “Inhibitors supercharge kinase turnover through native proteolytic circuits” (Nature, 2025).
Where a name gives a salt, the structure may show the parent alone. This is one part of the list. The calls rarely recur for the same compound in another form.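 Kinases were expressed as nanoluciferase fusions in K562 cells and luminescence was read every 4 h between 2 and 18 h as percent of control, DMSO set to 100% and a positive control to 0%. A time point counts as decreased when the signal drops significantly (2 sigma). The hit call is the authors' own, does not follow from the count of time points alone, and its rule is not shown.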

The chains behind the UniProt entries cited, without tags or fusion partners. Where a name states a change or a piece, a line headed by the entry shows the natural chain unless it says otherwise.
UniProt Q13546: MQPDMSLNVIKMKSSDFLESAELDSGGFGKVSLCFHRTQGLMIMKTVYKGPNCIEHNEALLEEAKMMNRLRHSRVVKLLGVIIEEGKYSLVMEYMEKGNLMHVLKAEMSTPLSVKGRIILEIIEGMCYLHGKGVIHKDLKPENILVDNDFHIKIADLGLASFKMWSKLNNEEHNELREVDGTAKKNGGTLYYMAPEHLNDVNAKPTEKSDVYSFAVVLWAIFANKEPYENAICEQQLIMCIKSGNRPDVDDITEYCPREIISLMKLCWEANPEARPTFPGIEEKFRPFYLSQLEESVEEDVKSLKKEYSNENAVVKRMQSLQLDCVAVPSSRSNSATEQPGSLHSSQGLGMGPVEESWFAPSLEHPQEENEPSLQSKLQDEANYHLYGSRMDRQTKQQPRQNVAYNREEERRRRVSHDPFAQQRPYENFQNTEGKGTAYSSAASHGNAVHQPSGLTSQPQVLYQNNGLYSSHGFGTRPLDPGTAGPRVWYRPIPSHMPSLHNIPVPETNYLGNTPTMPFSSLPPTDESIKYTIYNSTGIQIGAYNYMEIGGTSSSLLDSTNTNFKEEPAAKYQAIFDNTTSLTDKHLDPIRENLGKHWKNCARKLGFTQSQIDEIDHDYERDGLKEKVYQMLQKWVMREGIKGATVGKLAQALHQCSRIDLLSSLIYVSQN
UniProt Q01974, whole entry: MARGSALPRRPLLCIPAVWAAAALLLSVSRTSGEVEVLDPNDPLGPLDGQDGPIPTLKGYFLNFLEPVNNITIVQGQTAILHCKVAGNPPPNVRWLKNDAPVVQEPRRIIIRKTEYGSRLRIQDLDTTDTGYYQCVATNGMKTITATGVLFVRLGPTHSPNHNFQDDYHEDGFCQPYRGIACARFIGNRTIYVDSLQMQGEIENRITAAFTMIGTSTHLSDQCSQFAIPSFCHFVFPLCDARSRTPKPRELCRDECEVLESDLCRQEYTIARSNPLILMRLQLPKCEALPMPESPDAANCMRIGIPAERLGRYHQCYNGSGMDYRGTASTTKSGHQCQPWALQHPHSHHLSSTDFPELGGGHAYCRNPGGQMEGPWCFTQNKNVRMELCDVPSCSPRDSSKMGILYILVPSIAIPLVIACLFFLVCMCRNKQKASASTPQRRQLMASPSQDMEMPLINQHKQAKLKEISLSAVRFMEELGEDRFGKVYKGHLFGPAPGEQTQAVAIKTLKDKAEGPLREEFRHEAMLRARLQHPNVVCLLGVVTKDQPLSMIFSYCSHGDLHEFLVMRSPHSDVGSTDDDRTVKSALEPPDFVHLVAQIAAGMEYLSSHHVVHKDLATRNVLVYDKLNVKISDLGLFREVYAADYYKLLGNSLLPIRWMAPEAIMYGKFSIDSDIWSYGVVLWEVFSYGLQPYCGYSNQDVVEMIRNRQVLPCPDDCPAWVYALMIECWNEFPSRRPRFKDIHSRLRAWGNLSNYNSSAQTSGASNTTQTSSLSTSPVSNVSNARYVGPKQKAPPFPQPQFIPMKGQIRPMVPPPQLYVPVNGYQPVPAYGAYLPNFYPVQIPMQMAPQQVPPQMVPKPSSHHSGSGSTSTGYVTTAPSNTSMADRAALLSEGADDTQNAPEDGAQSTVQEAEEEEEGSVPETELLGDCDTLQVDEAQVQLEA
UniProt Q15418, whole entry: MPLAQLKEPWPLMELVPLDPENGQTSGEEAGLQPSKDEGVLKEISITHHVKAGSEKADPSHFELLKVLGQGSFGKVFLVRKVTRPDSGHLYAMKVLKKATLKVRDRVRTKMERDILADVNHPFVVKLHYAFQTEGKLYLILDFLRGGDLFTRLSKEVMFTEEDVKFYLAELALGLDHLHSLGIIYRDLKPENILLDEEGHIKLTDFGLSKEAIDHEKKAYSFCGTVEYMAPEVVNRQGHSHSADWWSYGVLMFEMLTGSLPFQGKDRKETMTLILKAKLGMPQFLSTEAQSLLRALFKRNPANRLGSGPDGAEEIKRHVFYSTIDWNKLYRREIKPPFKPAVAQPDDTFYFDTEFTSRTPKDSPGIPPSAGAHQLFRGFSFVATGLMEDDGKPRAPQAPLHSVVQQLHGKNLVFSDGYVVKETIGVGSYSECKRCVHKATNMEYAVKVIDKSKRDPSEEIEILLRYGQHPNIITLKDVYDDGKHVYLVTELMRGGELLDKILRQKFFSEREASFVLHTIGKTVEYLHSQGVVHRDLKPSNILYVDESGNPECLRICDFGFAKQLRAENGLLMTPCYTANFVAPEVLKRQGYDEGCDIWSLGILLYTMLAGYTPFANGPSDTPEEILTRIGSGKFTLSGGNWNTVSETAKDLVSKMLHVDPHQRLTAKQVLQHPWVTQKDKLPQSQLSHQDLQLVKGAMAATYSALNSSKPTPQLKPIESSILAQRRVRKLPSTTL
UniProt Q9Y6E0: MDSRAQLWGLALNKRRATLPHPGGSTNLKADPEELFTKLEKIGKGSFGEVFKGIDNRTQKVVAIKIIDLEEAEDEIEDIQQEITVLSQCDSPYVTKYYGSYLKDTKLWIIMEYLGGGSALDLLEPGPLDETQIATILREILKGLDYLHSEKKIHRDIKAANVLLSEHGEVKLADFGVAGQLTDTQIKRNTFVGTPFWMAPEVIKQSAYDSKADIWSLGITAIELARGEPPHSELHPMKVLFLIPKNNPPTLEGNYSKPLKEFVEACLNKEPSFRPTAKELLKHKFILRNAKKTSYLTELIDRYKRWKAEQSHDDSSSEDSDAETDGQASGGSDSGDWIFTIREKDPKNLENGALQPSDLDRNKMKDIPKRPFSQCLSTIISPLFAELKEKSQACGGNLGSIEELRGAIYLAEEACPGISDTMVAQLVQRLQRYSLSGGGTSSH
UniProt P42680: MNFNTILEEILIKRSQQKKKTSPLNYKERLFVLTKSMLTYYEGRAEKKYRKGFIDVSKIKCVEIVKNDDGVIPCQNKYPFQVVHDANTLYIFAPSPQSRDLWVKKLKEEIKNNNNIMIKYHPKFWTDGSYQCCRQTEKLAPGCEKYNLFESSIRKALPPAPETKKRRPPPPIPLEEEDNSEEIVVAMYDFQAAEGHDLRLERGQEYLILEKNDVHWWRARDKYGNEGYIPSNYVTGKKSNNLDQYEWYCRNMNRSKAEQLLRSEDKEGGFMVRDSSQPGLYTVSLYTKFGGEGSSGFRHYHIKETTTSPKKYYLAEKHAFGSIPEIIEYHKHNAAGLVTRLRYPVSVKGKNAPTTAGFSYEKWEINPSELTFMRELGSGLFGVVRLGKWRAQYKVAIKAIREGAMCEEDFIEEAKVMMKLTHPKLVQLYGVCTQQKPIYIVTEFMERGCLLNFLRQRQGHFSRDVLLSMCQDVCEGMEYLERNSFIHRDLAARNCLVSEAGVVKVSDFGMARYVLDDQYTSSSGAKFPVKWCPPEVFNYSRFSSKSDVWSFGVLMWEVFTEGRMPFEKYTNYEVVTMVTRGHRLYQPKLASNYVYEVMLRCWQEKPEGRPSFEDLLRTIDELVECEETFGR
UniProt P29597: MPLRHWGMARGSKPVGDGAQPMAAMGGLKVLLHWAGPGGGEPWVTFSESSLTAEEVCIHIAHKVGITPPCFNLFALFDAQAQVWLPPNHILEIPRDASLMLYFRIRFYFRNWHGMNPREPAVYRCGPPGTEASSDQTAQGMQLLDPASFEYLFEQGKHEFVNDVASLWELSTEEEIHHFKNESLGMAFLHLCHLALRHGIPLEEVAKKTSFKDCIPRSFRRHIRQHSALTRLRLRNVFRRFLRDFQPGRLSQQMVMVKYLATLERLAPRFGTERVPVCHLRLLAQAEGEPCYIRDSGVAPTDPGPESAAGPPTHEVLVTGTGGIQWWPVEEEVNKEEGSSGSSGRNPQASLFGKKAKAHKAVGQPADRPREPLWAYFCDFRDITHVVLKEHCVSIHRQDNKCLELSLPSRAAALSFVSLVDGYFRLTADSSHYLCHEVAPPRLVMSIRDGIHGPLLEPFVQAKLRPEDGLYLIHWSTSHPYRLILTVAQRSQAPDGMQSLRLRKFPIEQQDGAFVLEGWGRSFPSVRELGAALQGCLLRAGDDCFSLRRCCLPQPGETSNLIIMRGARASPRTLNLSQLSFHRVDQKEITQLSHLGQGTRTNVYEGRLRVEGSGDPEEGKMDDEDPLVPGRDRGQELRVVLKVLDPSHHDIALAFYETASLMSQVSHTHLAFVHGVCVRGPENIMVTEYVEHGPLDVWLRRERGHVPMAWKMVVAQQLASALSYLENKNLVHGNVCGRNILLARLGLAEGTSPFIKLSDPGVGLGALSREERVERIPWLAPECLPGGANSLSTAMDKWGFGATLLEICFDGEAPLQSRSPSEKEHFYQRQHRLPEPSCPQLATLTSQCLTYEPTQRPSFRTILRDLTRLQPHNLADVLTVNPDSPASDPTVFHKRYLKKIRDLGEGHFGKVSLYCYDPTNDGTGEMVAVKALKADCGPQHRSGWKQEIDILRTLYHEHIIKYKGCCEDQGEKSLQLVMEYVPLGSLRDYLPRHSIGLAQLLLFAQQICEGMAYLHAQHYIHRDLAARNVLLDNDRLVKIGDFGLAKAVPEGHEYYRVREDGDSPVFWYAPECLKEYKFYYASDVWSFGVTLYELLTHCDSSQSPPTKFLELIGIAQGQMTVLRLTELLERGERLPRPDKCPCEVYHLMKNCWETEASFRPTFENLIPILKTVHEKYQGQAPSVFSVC
UniProt P07947, whole entry, looked up: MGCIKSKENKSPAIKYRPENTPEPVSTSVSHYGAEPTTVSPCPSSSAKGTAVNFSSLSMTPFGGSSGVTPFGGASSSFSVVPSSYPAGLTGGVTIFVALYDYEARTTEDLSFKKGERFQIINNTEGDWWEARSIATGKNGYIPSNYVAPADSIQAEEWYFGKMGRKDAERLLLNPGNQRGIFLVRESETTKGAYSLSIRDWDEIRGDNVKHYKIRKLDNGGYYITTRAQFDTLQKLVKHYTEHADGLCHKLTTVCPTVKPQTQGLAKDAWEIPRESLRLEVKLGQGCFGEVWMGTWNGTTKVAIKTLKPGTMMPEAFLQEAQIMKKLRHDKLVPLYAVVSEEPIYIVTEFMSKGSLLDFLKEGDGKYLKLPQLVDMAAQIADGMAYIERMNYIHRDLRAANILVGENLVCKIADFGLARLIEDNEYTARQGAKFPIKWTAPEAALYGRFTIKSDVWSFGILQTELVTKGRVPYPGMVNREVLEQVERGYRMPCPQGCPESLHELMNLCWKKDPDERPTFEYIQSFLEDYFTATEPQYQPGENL
UniProt P43403: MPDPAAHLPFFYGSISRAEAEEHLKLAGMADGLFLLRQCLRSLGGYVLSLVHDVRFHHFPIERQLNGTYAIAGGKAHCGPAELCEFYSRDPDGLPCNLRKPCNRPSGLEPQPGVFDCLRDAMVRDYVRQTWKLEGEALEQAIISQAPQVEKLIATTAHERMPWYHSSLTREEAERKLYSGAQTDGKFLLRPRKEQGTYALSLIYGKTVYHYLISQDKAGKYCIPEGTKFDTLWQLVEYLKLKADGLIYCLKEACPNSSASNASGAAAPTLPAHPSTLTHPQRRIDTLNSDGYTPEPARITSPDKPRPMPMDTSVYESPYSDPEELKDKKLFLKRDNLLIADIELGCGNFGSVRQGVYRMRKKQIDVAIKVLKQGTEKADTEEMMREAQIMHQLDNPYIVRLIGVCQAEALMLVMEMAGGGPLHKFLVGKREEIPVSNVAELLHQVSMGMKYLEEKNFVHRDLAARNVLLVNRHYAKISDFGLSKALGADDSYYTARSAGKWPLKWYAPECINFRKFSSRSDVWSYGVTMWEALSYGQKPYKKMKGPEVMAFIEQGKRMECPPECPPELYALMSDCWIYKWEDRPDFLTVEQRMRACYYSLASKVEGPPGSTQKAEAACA
UniProt P31749: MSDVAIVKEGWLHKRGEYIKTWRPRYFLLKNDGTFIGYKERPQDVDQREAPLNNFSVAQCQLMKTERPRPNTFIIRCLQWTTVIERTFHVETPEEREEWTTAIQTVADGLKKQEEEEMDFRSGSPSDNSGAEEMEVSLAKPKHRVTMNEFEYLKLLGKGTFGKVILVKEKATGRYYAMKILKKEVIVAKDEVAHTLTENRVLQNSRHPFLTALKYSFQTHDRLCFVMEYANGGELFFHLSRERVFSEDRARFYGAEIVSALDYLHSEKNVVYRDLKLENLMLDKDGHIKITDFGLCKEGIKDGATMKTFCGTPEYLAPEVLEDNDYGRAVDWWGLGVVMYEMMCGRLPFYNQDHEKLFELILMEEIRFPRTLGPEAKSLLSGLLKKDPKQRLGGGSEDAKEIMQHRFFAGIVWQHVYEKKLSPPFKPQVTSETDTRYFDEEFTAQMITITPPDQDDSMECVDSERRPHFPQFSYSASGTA

Legend:
Conditions in all cases: K562; 2-18 h
RET = RET (UniProt P07949); test: kinase-Nluc reporter destabilization hit call (1 = scored as downregulated) (binary); higher = compound decreases kinase abundance
[1] = target: RET_M918T (clone: RET_mut) (UniProt P07949); test: as above
RIOK1 = RIOK1 (UniProt Q9BRS2); test: as above
RIPK1 = RIPK1 (UniProt Q13546); test: as above
RIPK2 = RIPK2 (UniProt O43353); test: as above
ROR2 = ROR2 (UniProt Q01974); test: as above
RPS6KA1 = RPS6KA1 (UniProt Q15418); test: as above
SPHK1 = SPHK1 (UniProt Q9NYA1); test: as above
SRC = SRC (UniProt P12931); test: as above
STK24 = STK24 (UniProt Q9Y6E0); test: as above
STK38 = STK38 (UniProt Q15208); test: as above
SYK = SYK (UniProt P43405); test: as above
TEC = TEC (UniProt P42680); test: as above
TYK2 = TYK2 (UniProt P29597); test: as above
ULK3 = ULK3 (UniProt Q6PHR2); test: as above
YES1 = YES1 (UniProt P07947); test: as above
ZAK = ZAK (UniProt Q9NYL2); test: as above
ZAP70 = ZAP70 (UniProt P43403); test: as above
ABL1 = ABL1 (UniProt P00519); test: number of time points (of 5) at which kinase-Nluc abundance scored as decreased, DMSO-normalised (count); higher = more persistent destabilization
AKT1 = AKT1 (UniProt P31749); test: as above

SMILES | kinase-Nluc reporter destabilization hit call (RET) | kinase-Nluc reporter destabilization hit call [1] | kinase-Nluc reporter destabilization hit call (RIOK1) | kinase-Nluc reporter destabilization hit call (RIPK1) | kinase-Nluc reporter destabilization hit call (RIPK2) | kinase-Nluc reporter destabilization hit call (ROR2) | kinase-Nluc reporter destabilization hit call (RPS6KA1) | kinase-Nluc reporter destabilization hit call (SPHK1) | kinase-Nluc reporter destabilization hit call (SRC) | kinase-Nluc reporter destabilization hit call (STK24) | kinase-Nluc reporter destabilization hit call (STK38) | kinase-Nluc reporter destabilization hit call (SYK) | kinase-Nluc reporter destabilization hit call (TEC) | kinase-Nluc reporter destabilization hit call (TYK2) | kinase-Nluc reporter destabilization hit call (ULK3) | kinase-Nluc reporter destabilization hit call (YES1) | kinase-Nluc reporter destabilization hit call (ZAK) | kinase-Nluc reporter destabilization hit call (ZAP70) | number of time points (ABL1) | number of time points (AKT1)
CCCCCC(=O)N[C@@H](Cc1ccc(O)cc1)C(=O)OC (10 µM) | inactive: 0 | inactive: 0 | inactive: 0 | inactive: 0 | inactive: 0 | inactive: 0 | inactive: 0 | inactive: 0 | inactive: 0 | inactive: 0 | inactive: 0 | inactive: 0 | inactive: 0 | inactive: 0 | inactive: 0 | inactive: 0 | inactive: 0 | inactive: 0 | 0 | 0
Cc1c(C(=O)Nc2ccc(Oc3ccnc4[nH]cc(-c5ccccc5)c34)c(F)c2)c(=O)n(-c2ccc(F)cc2)n1C (10 µM) | inactive: 0 | inactive: 0 | inactive: 0 | inactive: 0 | inactive: 0 | inactive: 0 | inactive: 0 | inactive: 0 | inactive: 0 | inactive: 0 | inactive: 0 | inactive: 0 | inactive: 0 | inactive: 0 | inactive: 0 | inactive: 0 | inactive: 0 | inactive: 0 | 4 | 0
C=CC(=O)Nc1cc(Nc2nccc(-c3cn(C)c4ccccc34)n2)c(OC)cc1OCCN(C)C [Rezivertinib] (2.5 µM) | inactive: 0 | inactive: 0 | inactive: 0 | inactive: 0 | inactive: 0 | inactive: 0 | inactive: 0 | inactive: 0 | inactive: 0 | inactive: 0 | inactive: 0 | inactive: 0 | inactive: 0 | inactive: 0 | inactive: 0 | inactive: 0 | inactive: 0 | inactive: 0 | 0 | 0
Cn1c2cc([S+](C)[O-])sc2c2cnn(Cc3cccc(N)c3)c(=O)c21 (stereo not given) (2.5 µM) | inactive: 0 | inactive: 0 | inactive: 0 | inactive: 0 | inactive: 0 | inactive: 0 | inactive: 0 | inactive: 0 | inactive: 0 | inactive: 0 | inactive: 0 | inactive: 0 | inactive: 0 | inactive: 0 | inactive: 0 | inactive: 0 | inactive: 0 | inactive: 0 | 0 | 0
C=CC(=O)N1CCN(C(=O)CNc2cc(I)c(Cl)cc2O)CC1 [K-Ras(G12C) inhibitor 12] (10 µM) | inactive: 0 | inactive: 0 | inactive: 0 | inactive: 0 | inactive: 0 | inactive: 0 | inactive: 0 | inactive: 0 | inactive: 0 | inactive: 0 | inactive: 0 | inactive: 0 | inactive: 0 | inactive: 0 | inactive: 0 | inactive: 0 | inactive: 0 | inactive: 0 | 0 | 0
O=C1OC(/C=C/c2ccccc2)=NC/1=C\c1cccnc1 (10 µM) | inactive: 0 | inactive: 0 | inactive: 0 | inactive: 0 | inactive: 0 | inactive: 0 | inactive: 0 | inactive: 0 | inactive: 0 | inactive: 0 | inactive: 0 | inactive: 0 | inactive: 0 | inactive: 0 | inactive: 0 | inactive: 0 | inactive: 0 | inactive: 0 | 0 | 0
Cc1cc(C(=O)Nc2nc3cccc(Cl)c3n2[C@@H]2CCCCN(C(=O)/C=C/CN(C)C)C2)ccn1 [Nazartinib] (10 µM) | inactive: 0 | inactive: 0 | inactive: 0 | inactive: 0 | inactive: 0 | inactive: 0 | inactive: 0 | inactive: 0 | inactive: 0 | inactive: 0 | inactive: 0 | inactive: 0 | inactive: 0 | inactive: 0 | inactive: 0 | inactive: 0 | inactive: 0 | inactive: 0 | 0 | 0
CC(C)(C)Cc1[nH]nc2c1[C@@](C)(c1ccccc1)C1=C(CC(C)(C)CC1=O)N2 (10 µM) | inactive: 0 | inactive: 0 | inactive: 0 | inactive: 0 | inactive: 0 | inactive: 0 | inactive: 0 | inactive: 0 | inactive: 0 | inactive: 0 | inactive: 0 | inactive: 0 | inactive: 0 | inactive: 0 | inactive: 0 | inactive: 0 | inactive: 0 | inactive: 0 | 0 | 0
COc1ccc2c3n(c(=NC(=O)c4cccnc4)nc2c1OC)CCN3 (2 µM) | inactive: 0 | inactive: 0 | inactive: 0 | inactive: 0 | inactive: 0 | inactive: 0 | inactive: 0 | inactive: 0 | inactive: 0 | inactive: 0 | inactive: 0 | inactive: 0 | inactive: 0 | inactive: 0 | inactive: 0 | inactive: 0 | inactive: 0 | inactive: 0 | 0 | 0
O=C(O)c1cc(N(Cc2ccccc2O)Cc2cc(O)ccc2O)ccc1O [Lavendustin A] (10 µM) | inactive: 0 | inactive: 0 | inactive: 0 | inactive: 0 | inactive: 0 | inactive: 0 | inactive: 0 | inactive: 0 | inactive: 0 | inactive: 0 | inactive: 0 | inactive: 0 | inactive: 0 | inactive: 0 | inactive: 0 | inactive: 0 | inactive: 0 | inactive: 0 | 0 | 0
CC1=C(C(=O)Nc2cc3cn[nH]c3cc2F)C(c2ccc(C(F)(F)F)cc2)CC(=O)N1 (stereo not given) (10 µM) | inactive: 0 | inactive: 0 | inactive: 0 | inactive: 0 | inactive: 0 | inactive: 0 | inactive: 0 | inactive: 0 | inactive: 0 | inactive: 0 | inactive: 0 | inactive: 0 | inactive: 0 | inactive: 0 | inactive: 0 | inactive: 0 | inactive: 0 | inactive: 0 | 0 | 0
COC(=O)Nc1ccc(-c2nc(N3CCOCC3)c3cnn(C4CCN(C(=O)OC)CC4)c3n2)cc1 (10 µM) | inactive: 0 | inactive: 0 | inactive: 0 | inactive: 0 | inactive: 0 | inactive: 0 | inactive: 0 | inactive: 0 | inactive: 0 | inactive: 0 | inactive: 0 | inactive: 0 | inactive: 0 | inactive: 0 | inactive: 0 | inactive: 0 | inactive: 0 | inactive: 0 | 0 | 0
Nc1nccc(-c2c(-c3ccc(F)cc3)ncn2C2CCCCC2)n1 (10 µM) | inactive: 0 | inactive: 0 | inactive: 0 | inactive: 0 | inactive: 0 | inactive: 0 | inactive: 0 | inactive: 0 | inactive: 0 | inactive: 0 | inactive: 0 | inactive: 0 | inactive: 0 | inactive: 0 | inactive: 0 | inactive: 0 | inactive: 0 | inactive: 0 | 0 | 0
N#Cc1ccc(-c2cnc3ccc(-c4ccc(C(=O)N5CCOCC5)cc4)cn23)cc1 (10 µM) | inactive: 0 | inactive: 0 | inactive: 0 | inactive: 0 | inactive: 0 | inactive: 0 | inactive: 0 | inactive: 0 | inactive: 0 | inactive: 0 | inactive: 0 | inactive: 0 | inactive: 0 | inactive: 0 | inactive: 0 | inactive: 0 | inactive: 0 | inactive: 0 | 0 | 0
Nc1ncnc2c1nc(Br)n2[C@@H]1O[C@@H]2COP(=O)(O)O[C@H]2[C@H]1O [8-Bromo-cAMP sodium salt] (10 µM) | inactive: 0 | inactive: 0 | inactive: 0 | inactive: 0 | inactive: 0 | inactive: 0 | inactive: 0 | inactive: 0 | inactive: 0 | inactive: 0 | inactive: 0 | inactive: 0 | inactive: 0 | inactive: 0 | inactive: 0 | inactive: 0 | inactive: 0 | inactive: 0 | 0 | 0
CCN(CC)CCOc1ccc(Nc2nc(-c3ccccc3NC(=O)CCN3CCN(C)CC3)nc3ccccc23)cc1 (2.5 µM) | inactive: 0 | inactive: 0 | inactive: 0 | inactive: 0 | inactive: 0 | inactive: 0 | inactive: 0 | inactive: 0 | inactive: 0 | inactive: 0 | inactive: 0 | inactive: 0 | inactive: 0 | inactive: 0 | inactive: 0 | inactive: 0 | inactive: 0 | inactive: 0 | 0 | 0
CNC(=O)c1cc2c(Oc3ccc(NC(=O)C4(C(=O)Nc5ccc(F)cc5)CC4)cc3)ccnc2cc1OC (2.5 µM) | inactive: 0 | inactive: 0 | inactive: 0 | inactive: 0 | inactive: 0 | inactive: 0 | inactive: 0 | inactive: 0 | inactive: 0 | inactive: 0 | inactive: 0 | inactive: 0 | inactive: 0 | inactive: 0 | inactive: 0 | inactive: 0 | inactive: 0 | inactive: 0 | 3 | 0
CCN1CCN(Cc2cnc(Nc3cc(-c4cc(F)c5nc(C)n(C(C)C)c5c4)c(F)cn3)nc2)CC1 (10 µM) | inactive: 0 | inactive: 0 | inactive: 0 | inactive: 0 | inactive: 0 | inactive: 0 | inactive: 0 | inactive: 0 | inactive: 0 | inactive: 0 | inactive: 0 | inactive: 0 | inactive: 0 | inactive: 0 | inactive: 0 | inactive: 0 | inactive: 0 | inactive: 0 | 0 | 0
CC(Sc1nc2c(cnn2-c2cccc(Cl)c2)c(=O)[nH]1)C(N)=O (stereo not given) (10 µM) | inactive: 0 | inactive: 0 | inactive: 0 | inactive: 0 | inactive: 0 | inactive: 0 | inactive: 0 | inactive: 0 | inactive: 0 | inactive: 0 | inactive: 0 | inactive: 0 | inactive: 0 | inactive: 0 | inactive: 0 | inactive: 0 | inactive: 0 | inactive: 0 | 0 | 0

Arranged by number of heavy atoms (falling): part of the list above
SMILES | kinase-Nluc reporter destabilization hit call (RET) | kinase-Nluc reporter destabilization hit call [1] | kinase-Nluc reporter destabilization hit call (RIOK1) | kinase-Nluc reporter destabilization hit call (RIPK1) | kinase-Nluc reporter destabilization hit call (RIPK2) | kinase-Nluc reporter destabilization hit call (ROR2) | kinase-Nluc reporter destabilization hit call (RPS6KA1) | kinase-Nluc reporter destabilization hit call (SPHK1) | kinase-Nluc reporter destabilization hit call (SRC) | kinase-Nluc reporter destabilization hit call (STK24) | kinase-Nluc reporter destabilization hit call (STK38) | kinase-Nluc reporter destabilization hit call (SYK) | kinase-Nluc reporter destabilization hit call (TEC) | kinase-Nluc reporter destabilization hit call (TYK2) | kinase-Nluc reporter destabilization hit call (ULK3) | kinase-Nluc reporter destabilization hit call (YES1) | kinase-Nluc reporter destabilization hit call (ZAK) | kinase-Nluc reporter destabilization hit call (ZAP70) | number of time points (ABL1) | number of time points (AKT1)
CCN1CCN(Cc2cnc(Nc3cc(-c4cc(F)c5nc(C)n(C(C)C)c5c4)c(F)cn3)nc2)CC1 (10 µM) | inactive: 0 | inactive: 0 | inactive: 0 | inactive: 0 | inactive: 0 | inactive: 0 | inactive: 0 | inactive: 0 | inactive: 0 | inactive: 0 | inactive: 0 | inactive: 0 | inactive: 0 | inactive: 0 | inactive: 0 | inactive: 0 | inactive: 0 | inactive: 0 | 0 | 0
COC(=O)Nc1ccc(-c2nc(N3CCOCC3)c3cnn(C4CCN(C(=O)OC)CC4)c3n2)cc1 (10 µM) | inactive: 0 | inactive: 0 | inactive: 0 | inactive: 0 | inactive: 0 | inactive: 0 | inactive: 0 | inactive: 0 | inactive: 0 | inactive: 0 | inactive: 0 | inactive: 0 | inactive: 0 | inactive: 0 | inactive: 0 | inactive: 0 | inactive: 0 | inactive: 0 | 0 | 0
C=CC(=O)N1CCN(C(=O)CNc2cc(I)c(Cl)cc2O)CC1 [K-Ras(G12C) inhibitor 12] (10 µM) | inactive: 0 | inactive: 0 | inactive: 0 | inactive: 0 | inactive: 0 | inactive: 0 | inactive: 0 | inactive: 0 | inactive: 0 | inactive: 0 | inactive: 0 | inactive: 0 | inactive: 0 | inactive: 0 | inactive: 0 | inactive: 0 | inactive: 0 | inactive: 0 | 0 | 0
